Test results taken from patent publication US8901038B2, “Biphenyl-substituted cyclic ketoenols” (Bayer CropScience AG, priority 2010, dated 2014).
Some entries share one result that the patent states for a list of compounds. Some compounds share one range, which may span the group rather than tell each member.

Columns and labels:
Type in all cases: in vivo
[1] = test system: Alopecurus myosuroides; test: Herbicidal post-emergence action; conditions: post-emergence method, 80 g/ha; rated visually after about 3 weeks
[2] = test system: Setaria viridis; test: Herbicidal post-emergence action; conditions: post-emergence method, 80 g/ha; rated visually after about 3 weeks
[3] = test system: Echinocloa crus-galli; test: Herbicidal post-emergence action; conditions: post-emergence method, 80 g/ha; rated visually after about 3 weeks
[4] = test system: Avena fatua; test: Herbicidal post-emergence action; conditions: post-emergence method, 80 g/ha; rated visually after about 3 weeks
[5] = test system: Lolium multiflorum; test: Herbicidal post-emergence action; conditions: post-emergence method, 80 g/ha; rated visually after about 3 weeks
[6] = test system: Setaria viridis; test: Herbicidal pre-emergence action; conditions: pre-emergence method, 320 g of a.i./ha; visual assessment after about 3 weeks
[7] = test system: Lolium multiflorum; test: Herbicidal pre-emergence action; conditions: pre-emergence method, 320 g of a.i./ha; visual assessment after about 3 weeks
[8] = test system: Alopecurus myosuroides; test: Herbicidal pre-emergence action; conditions: pre-emergence method, 320 g of a.i./ha; visual assessment after about 3 weeks
[9] = test system: Echinocloa crus-galli; test: Herbicidal pre-emergence action; conditions: pre-emergence method, 320 g of a.i./ha; visual assessment after about 3 weeks

Measured: efficacy (herbicidal effect)

CCc1ccc(-c2ccc(Cl)cc2)c(CC)c1C1=C(O)C2(CCOCC2)NC1=O [Example I-1-a-1]
80-100%: [1] | [2] | [3] | [4] | [5]

CCOC(=O)OC1=C(c2c(CC)ccc(-c3ccc(Cl)cc3)c2CC)C(=O)NC12CCOCC2 [Example I-1-c-1]
80-100%: [6] | [7] | [8] | [9]
